Data as given in the supplement of paper PMC11732987, “Enantioselective OTUD7B fragment discovery through chemoproteomics screening and high-throughput optimisation” (Communications Chemistry, 2025).
Some of the results follow. The data scatter; read single values as rough.

Amino acid sequences for entries named in this document (tags omitted). A change or cut given only in a name is not applied to a line headed by its entry. Residues count along the entry.
UniProt Q14442: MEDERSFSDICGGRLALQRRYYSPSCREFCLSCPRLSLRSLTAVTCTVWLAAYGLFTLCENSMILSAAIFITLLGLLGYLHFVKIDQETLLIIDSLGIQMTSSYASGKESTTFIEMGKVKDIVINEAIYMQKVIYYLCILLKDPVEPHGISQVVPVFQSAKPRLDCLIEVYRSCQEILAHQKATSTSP
UniProt Q02809: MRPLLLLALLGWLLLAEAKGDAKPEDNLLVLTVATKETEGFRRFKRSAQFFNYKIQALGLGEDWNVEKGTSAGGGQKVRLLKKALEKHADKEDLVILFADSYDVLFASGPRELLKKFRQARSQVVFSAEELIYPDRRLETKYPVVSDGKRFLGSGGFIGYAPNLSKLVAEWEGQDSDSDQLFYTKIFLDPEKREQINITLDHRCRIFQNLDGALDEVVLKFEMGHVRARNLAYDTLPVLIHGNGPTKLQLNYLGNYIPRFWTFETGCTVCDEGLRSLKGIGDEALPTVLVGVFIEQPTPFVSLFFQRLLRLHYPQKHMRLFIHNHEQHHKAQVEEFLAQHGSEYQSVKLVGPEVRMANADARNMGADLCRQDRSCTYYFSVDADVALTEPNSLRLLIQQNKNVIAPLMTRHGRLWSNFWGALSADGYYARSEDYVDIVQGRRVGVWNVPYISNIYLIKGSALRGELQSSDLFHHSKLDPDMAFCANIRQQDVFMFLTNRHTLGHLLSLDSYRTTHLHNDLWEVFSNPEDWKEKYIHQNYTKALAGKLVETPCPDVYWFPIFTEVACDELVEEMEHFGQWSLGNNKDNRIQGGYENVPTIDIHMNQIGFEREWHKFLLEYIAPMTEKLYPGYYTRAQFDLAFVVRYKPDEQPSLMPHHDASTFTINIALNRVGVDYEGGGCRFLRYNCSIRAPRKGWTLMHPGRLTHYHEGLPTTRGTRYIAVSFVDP
UniProt Q14181: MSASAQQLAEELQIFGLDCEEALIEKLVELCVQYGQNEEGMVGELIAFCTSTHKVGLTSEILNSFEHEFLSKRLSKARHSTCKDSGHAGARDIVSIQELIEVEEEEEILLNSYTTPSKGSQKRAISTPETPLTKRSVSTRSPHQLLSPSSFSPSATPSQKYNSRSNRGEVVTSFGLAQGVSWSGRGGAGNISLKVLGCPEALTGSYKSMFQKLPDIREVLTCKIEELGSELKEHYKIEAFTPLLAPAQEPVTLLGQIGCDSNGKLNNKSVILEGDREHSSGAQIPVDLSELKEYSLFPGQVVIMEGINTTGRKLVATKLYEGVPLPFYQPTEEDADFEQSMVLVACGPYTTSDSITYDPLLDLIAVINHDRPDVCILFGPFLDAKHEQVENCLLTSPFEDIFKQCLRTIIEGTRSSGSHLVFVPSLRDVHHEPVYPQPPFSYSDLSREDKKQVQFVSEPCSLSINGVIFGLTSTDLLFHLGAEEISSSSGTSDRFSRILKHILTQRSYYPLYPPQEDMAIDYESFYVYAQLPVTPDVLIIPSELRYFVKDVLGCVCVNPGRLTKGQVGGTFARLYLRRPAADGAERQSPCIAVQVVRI
UniProt Q9UBF8: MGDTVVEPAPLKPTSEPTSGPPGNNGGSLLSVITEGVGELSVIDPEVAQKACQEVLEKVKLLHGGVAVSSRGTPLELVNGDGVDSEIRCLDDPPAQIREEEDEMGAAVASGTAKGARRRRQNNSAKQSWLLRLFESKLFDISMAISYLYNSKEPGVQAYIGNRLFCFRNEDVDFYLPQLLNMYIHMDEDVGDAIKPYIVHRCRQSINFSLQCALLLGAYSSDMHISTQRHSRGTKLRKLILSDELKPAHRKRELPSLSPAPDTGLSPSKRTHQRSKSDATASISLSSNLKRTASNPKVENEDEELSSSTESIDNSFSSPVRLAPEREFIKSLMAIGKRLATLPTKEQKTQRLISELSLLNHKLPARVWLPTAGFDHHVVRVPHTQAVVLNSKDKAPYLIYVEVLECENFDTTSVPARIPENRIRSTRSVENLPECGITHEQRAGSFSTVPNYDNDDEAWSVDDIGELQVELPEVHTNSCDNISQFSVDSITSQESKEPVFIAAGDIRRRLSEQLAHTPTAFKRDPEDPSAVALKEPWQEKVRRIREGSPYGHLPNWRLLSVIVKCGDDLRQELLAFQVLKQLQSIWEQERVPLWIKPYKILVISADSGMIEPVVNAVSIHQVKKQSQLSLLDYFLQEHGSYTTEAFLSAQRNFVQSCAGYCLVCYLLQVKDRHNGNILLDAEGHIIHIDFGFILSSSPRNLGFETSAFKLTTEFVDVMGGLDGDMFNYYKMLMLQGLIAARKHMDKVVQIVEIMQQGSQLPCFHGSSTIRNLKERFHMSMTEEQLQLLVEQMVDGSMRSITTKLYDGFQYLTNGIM
UniProt Q92643: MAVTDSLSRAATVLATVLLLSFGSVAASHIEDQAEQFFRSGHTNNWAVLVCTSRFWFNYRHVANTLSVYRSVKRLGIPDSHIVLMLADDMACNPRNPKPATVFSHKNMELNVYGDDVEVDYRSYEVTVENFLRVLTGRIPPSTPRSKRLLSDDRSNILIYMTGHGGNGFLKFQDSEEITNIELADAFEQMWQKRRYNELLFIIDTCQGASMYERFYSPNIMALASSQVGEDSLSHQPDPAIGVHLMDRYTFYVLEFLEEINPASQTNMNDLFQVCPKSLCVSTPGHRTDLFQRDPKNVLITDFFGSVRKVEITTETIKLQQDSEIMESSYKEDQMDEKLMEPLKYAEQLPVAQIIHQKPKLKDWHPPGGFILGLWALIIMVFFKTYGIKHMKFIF
UniProt Q15054: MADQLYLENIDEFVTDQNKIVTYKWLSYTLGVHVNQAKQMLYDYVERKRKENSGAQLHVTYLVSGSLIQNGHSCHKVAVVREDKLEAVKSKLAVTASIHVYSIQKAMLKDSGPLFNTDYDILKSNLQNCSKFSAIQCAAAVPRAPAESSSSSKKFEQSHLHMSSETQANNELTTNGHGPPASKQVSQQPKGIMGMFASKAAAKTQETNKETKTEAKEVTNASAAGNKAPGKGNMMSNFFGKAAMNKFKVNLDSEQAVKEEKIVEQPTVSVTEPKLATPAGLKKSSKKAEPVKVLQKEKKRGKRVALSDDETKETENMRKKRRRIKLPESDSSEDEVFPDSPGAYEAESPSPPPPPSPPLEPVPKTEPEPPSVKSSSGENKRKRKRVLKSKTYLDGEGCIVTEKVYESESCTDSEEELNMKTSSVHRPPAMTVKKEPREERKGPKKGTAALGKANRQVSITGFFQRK
UniProt Q8NBL1: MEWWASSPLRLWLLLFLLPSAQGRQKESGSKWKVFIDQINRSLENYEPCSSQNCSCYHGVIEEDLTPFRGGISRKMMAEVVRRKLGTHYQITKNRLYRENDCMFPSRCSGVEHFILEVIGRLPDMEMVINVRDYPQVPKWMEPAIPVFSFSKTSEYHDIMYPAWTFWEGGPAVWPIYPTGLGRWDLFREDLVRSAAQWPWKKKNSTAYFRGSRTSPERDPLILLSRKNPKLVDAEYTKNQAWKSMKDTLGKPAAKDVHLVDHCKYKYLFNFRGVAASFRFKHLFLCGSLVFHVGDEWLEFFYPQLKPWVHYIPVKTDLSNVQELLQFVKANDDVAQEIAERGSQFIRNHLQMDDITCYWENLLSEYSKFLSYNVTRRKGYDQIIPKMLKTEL
UniProt O60664, 29-50: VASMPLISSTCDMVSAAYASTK
UniProt O75925: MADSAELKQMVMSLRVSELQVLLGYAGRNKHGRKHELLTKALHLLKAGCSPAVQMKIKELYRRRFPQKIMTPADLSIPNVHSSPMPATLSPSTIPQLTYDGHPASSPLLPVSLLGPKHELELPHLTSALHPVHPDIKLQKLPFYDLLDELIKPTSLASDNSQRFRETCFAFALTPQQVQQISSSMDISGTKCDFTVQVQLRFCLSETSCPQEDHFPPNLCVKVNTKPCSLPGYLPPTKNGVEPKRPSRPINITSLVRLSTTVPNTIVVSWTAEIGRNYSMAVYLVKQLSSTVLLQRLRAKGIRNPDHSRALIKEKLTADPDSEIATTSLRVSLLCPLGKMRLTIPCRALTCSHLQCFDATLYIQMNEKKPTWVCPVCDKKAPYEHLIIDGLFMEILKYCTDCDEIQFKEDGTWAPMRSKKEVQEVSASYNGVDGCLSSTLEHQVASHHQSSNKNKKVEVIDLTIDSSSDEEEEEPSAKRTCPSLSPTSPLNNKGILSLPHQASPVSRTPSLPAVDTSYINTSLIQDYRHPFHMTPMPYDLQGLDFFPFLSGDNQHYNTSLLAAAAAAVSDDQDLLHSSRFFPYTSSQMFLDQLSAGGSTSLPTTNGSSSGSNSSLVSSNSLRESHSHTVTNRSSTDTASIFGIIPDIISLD
UniProt Q8TC44: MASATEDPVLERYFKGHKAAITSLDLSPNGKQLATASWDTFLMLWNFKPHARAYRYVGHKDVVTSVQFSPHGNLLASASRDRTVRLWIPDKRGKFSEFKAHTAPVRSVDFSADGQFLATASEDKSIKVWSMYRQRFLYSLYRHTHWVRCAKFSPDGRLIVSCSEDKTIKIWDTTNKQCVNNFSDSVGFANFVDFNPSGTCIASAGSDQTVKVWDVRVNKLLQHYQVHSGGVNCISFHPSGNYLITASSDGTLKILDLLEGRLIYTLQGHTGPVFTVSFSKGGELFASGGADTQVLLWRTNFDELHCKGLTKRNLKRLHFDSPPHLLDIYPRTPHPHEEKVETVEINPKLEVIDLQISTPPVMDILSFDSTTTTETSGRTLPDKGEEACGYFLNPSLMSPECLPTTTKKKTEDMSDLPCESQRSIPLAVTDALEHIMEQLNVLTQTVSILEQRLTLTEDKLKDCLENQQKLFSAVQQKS
UniProt Q9UNA4: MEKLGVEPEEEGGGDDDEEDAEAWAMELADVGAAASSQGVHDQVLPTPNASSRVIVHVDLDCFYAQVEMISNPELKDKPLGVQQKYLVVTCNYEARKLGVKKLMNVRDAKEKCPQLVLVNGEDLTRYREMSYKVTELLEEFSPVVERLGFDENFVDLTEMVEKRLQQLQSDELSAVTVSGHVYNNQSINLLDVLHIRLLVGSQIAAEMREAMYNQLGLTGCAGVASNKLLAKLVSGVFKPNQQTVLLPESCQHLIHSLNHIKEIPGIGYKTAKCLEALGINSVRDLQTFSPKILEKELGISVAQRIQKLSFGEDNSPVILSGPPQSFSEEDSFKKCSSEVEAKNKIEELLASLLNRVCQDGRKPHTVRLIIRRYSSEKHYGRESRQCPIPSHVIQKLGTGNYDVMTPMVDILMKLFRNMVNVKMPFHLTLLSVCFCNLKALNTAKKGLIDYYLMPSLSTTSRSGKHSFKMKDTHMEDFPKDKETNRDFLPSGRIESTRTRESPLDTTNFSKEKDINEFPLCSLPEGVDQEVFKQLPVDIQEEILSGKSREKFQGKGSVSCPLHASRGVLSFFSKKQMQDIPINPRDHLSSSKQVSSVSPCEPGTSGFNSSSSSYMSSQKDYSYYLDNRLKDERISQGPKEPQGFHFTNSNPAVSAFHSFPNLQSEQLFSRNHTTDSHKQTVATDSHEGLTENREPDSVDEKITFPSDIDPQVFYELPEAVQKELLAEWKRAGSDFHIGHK
UniProt Q07864, 1596-1616: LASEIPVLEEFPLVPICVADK
UniProt P42338: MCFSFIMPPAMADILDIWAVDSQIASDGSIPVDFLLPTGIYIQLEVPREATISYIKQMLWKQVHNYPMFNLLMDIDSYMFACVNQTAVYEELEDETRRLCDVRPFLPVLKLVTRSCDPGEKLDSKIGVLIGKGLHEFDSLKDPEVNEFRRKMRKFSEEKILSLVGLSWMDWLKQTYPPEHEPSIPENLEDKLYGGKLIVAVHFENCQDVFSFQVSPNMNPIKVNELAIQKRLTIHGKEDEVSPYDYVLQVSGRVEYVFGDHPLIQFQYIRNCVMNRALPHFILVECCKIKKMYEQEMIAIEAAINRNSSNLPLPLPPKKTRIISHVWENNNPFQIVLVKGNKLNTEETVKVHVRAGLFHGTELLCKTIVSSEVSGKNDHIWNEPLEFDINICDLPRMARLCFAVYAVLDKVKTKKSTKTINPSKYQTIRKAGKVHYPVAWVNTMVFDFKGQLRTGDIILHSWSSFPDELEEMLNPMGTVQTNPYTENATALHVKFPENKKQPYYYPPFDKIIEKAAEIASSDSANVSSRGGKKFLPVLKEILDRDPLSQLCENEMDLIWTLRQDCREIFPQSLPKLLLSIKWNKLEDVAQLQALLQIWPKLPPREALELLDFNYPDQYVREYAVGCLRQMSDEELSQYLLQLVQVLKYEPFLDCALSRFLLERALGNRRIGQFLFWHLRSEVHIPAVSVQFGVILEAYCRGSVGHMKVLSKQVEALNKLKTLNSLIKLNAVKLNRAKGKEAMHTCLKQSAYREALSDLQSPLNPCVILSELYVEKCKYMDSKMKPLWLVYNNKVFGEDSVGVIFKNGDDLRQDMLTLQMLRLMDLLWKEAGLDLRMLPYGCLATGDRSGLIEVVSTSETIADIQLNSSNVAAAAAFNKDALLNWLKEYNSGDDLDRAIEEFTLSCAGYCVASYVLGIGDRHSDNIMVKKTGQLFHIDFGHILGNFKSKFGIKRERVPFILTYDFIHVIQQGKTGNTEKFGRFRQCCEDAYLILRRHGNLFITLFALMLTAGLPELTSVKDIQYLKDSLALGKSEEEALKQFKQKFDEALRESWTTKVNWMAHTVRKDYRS

Key:
[1] = compound: ClCC(=O)N[C@@H]1CCCc2ccccc12; assay: log2 mean competition ratio of IA-DTB cysteine labelling (DMSO/compound) (log2 ratio); higher = stronger cysteine engagement by compound; settings: treatment time: 4 h, cell line lysate: HEK293T
Method: (§1)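 IA-DTB competitive cysteine chemoproteomics in HEK293T RIPA lysate. Lysates were treated with compound 29 or 30 at 50 or 200 µM for 4 h, then IA-DTB (500 µM, 1 h), trypsin-digested, NeutrAvidin-enriched and analysed by diaPASEF. Competition ratio = intensity DMSO / intensity compound (n=4 treated, n=64 DMSO); binding: mean log2 CR ≥ 1 and p ≤ 0.05 plus QC filters. Target is the cysteine site.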

[2] = compound: ClCC(=O)N[C@H]1CCCc2ccccc12; assay: as above; settings: treatment time: 4 h, cell line lysate: HEK293T
Method: as §1

Target	log2 mean competition ratio ([1]; 50 µM)	log2 mean competition ratio ([1]; 200 µM)	log2 mean competition ratio ([2]; 50 µM)	log2 mean competition ratio ([2]; 200 µM)
POLDIP3 C338 (UniProt Q9BY77)	-0.0993	-0.0226	0.106	-0.0316
PIGH C26 (UniProt Q14442)	0.079	0.209	-0.0469	0.0587
PJA1 C241	0.0442	0.233	0.065	0.0929
POLR1B C103 (UniProt Q9H9Y6)	-0.294	-0.0219	-0.104	0.0401
PKM C49	-0.117	-0.274	-0.0945	-0.0313
PLXNA1 C1525 (UniProt Q9UIW2)	0.0101	-0.11	-0.286	0.141
PLOD1 C369 (UniProt Q02809)	-0.194	0.339	0.228	0.205
PLOD1 C484 (UniProt Q02809)	-0.0672	-0.314	0.19	-0.0391
PLPBP C15 (UniProt O94903)	0.24	0.349	0.00619	0.139
PHF23 C381 (UniProt Q9BUL5)	-0.234	-0.186	-0.189	0.0955
POLA2 C198 (UniProt Q14181)	-0.00726	-0.00803	-0.218	-0.0622
PLOD1 C680 (UniProt Q02809)	-0.11	0.0838	-0.078	0.579
PI4KB C89 (UniProt Q9UBF8)	-0.221	-0.00208	0.0683	-0.0536
PIGK C280 (UniProt Q92643)	0.181	-0.0782	0.243	-0.127
POLD3 C398 (UniProt Q15054)	-0.172	-0.137	-0.0373	-0.141
PHF5A C75 (UniProt Q7RTV0)	0.174	-0.394	0.442	-0.295
PICK1 C145 (UniProt Q9NRD5)	-0.0265	0.29	-0.387	0.14
PIK3C2A C418 (UniProt O00443)	-0.0231	-0.00911	-0.144	-0.0438
POLK C8 (UniProt Q9UBT6)	-0.0304	0.327	-0.715	0.24
PIKFYVE C161 (UniProt Q9Y2I7)	-0.193	0.35	-0.18	0.0847
PMS2 C216 (UniProt P54278)	0.505	-0.0757	0.475	-0.021
PLS1 C166 (UniProt Q14651)	0.174	-0.16	-0.0417	0.0223
PHKA1 C656 (UniProt P46020)	-0.0191	0.0185	-0.0716	0.0683
POGLUT1 C102 (UniProt Q8NBL1)	-0.188	-0.123	-0.142	0.133
POLR2A C1159	-0.0394	0.0409	-0.196	0.0302
PLEKHG3 C30	-0.147	0.116	-0.476	0.145

Target	log2 mean competition ratio ([1]; 50 µM)	log2 mean competition ratio ([1]; 200 µM)	log2 mean competition ratio ([2]; 50 µM)	log2 mean competition ratio ([2]; 200 µM)
PLBD2 C495 (UniProt Q8NHP8)	0.0739	-0.102	-0.71	-0.218
PIK3R4 C195 (UniProt Q99570)	-0.0339	0.164	0.0889	0.0914
PLIN3 C39 (UniProt O60664)			0.347	0.198
POLR1A C1304 (UniProt O95602)			-0.0766	-0.39
PIGT C182			-0.121	-0.0202
PLEKHG4 C26 (UniProt Q58EX7)			0.19	0.154
POLL C241			-0.0433	-0.271
PLPP6 C55 (UniProt Q8IY26)			0.12	0.235
PIAS1 C228 (UniProt O75925)			-0.31	-0.214
POC1B C306 (UniProt Q8TC44)			0.361	-0.0783
PHF8 C684 (UniProt Q9UPP1)			-0.0849	0.0891
PLEKHH2 C257 (UniProt E5RGK1)			-0.107	0.409
PIAS3 C620			-0.21	0.246
PIGH C174 (UniProt Q14442)			-0.262	-0.146
PMF1 C13 (UniProt Q6P1K2)			-0.398	0.128
POLI C336 (UniProt Q9UNA4)			-0.386	0.146
POLE C1612 (UniProt Q07864)			0.365	-0.776
PIK3CB C626 (UniProt P42338)			-0.25	0.0464
POLR1E C14 (UniProt Q9GZS1)			0.214	-0.0765
PISD C300 (UniProt Q9UG56)			0.03	-0.265
PHKA1 C1185 (UniProt P46020)			-0.0583	-0.0124
PHYH C205 (UniProt O14832)			-0.477	0.0506
PIGT C272			-0.0138	-0.04
PLEKHG2 C648 (UniProt Q9H7P9)			-0.298	-0.0792
PIK3R4 C84 (UniProt Q99570)			0.127	0.0163

At a glance, part of the list above:
Target	log2 mean competition ratio ([1]; 50 µM)	log2 mean competition ratio ([1]; 200 µM)	log2 mean competition ratio ([2]; 50 µM)	log2 mean competition ratio ([2]; 200 µM)
PKM C49	-0.117	-0.274	-0.0945	-0.0313
PLXNA1 C1525 (UniProt Q9UIW2)	0.0101	-0.11	-0.286	0.141
PLOD1 C369 (UniProt Q02809)	-0.194	0.339	0.228	0.205
PLOD1 C484 (UniProt Q02809)	-0.0672	-0.314	0.19	-0.0391
PLPBP C15 (UniProt O94903)	0.24	0.349	0.00619	0.139
PHF23 C381 (UniProt Q9BUL5)	-0.234	-0.186	-0.189	0.0955
POLA2 C198 (UniProt Q14181)	-0.00726	-0.00803	-0.218	-0.0622
PLOD1 C680 (UniProt Q02809)	-0.11	0.0838	-0.078	0.579
PI4KB C89 (UniProt Q9UBF8)	-0.221	-0.00208	0.0683	-0.0536
PIGK C280 (UniProt Q92643)	0.181	-0.0782	0.243	-0.127
POLD3 C398 (UniProt Q15054)	-0.172	-0.137	-0.0373	-0.141
PHF5A C75 (UniProt Q7RTV0)	0.174	-0.394	0.442	-0.295
PICK1 C145 (UniProt Q9NRD5)	-0.0265	0.29	-0.387	0.14
PIK3C2A C418 (UniProt O00443)	-0.0231	-0.00911	-0.144	-0.0438
POLK C8 (UniProt Q9UBT6)	-0.0304	0.327	-0.715	0.24
